Test results published in PMC10780347.
No constants are given. Whether binding was seen depends on the method and setting. Binding seen in cells or lysates may run through a third protein. Some results given as binding are weak or reduced against the parent protein; the word gives no strength. Tags and fused reporters may be left off the sequences shown.

Columns and labels:
phogrin–GST [1] = target: T1, phogrin–GST (UniProt Q63475); test: condition: only extracts of separately cultured cells mixed after lysis; pull-down; lysate mix: extracts (2.0 mg) of separately cultured MIN6/phogrin–EGFP and MIN6/phogrin–GST cells mixed, pulled down with glutathione sepharose, blot with anti-GFP
T1 sequence: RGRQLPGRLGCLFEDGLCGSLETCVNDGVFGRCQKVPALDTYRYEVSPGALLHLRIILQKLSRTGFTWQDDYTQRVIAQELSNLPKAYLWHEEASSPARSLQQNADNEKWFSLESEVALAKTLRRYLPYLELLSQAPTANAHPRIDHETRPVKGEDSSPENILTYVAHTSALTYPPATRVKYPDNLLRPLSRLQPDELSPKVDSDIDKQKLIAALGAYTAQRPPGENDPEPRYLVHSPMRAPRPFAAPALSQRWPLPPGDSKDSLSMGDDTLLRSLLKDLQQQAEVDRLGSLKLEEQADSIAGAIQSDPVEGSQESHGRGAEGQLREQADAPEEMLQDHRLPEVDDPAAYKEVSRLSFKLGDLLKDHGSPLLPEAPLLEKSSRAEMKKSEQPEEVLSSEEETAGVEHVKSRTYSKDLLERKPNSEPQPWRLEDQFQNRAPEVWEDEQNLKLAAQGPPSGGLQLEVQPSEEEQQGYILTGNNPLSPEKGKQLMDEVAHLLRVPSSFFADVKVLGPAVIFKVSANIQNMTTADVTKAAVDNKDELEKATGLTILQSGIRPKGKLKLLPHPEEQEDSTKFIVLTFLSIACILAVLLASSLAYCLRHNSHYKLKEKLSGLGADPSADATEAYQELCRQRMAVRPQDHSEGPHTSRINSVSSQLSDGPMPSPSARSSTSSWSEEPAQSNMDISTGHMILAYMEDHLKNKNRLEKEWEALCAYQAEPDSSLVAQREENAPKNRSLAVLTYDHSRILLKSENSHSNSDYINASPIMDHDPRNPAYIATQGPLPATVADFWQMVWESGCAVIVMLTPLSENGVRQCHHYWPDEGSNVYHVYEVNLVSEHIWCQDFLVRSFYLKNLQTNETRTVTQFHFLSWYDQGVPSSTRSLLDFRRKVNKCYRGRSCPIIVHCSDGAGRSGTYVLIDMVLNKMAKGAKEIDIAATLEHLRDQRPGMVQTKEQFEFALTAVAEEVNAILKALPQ

phogrin–GST [2] = target: T1, phogrin–GST; test: pull-down; MIN6/phogrin–EGFP and MIN6/phogrin–GST co-cultured 1:1 for 48 h at low density (75%, subconfluent), 2.0 mg extract pulled down with glutathione sepharose, blot with anti-GFP
phogrin–GST [3] = target: T1, phogrin–GST; test: pull-down; MIN6/phogrin–EGFP and MIN6/phogrin–GST co-cultured 1:1 for 48 h at high density (100%, confluent), 2.0 mg extract pulled down with glutathione sepharose, blot with anti-GFP

B1: phogrin–EGFP (protein, UniProt Q63475 28-1004)
chain: T1 sequence
binding (phogrin–GST [1]): no binding
binding (phogrin–GST [2]): binds weakly
binding (phogrin–GST [3]): binds
